For 39 compounds, AC50 results are on record in PubChem BioAssay AID445 (National Center for Advancing Translational Sciences (NCATS), 2006).

The other results are listed elsewhere or left out. These are further read-outs of the screen, such as a control signal, another cell line or another target. No call is given for them. The list favours compounds with an active or inconclusive main result. The note in brackets gives the kind of curve behind each potency; many fits are weak.

This experiment is described as follows: IkB Signaling. The note with it: ABC-DLBCL IkBa-CBG/CBR dual luciferase ratio (green luciferase fused to IkBa over red control in OCI-Ly3 lymphoma cells), 4 h; measured here: control luc red channel unless noted. The gist of the method: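 In this assay, an IκBα–CBG68 fusion accumulates when IKK-driven degradation is blocked; native CBR normalizes for cell number. OCI-Ly3 cells were treated 4 h with compound and doxycycline, then green and red light read after Chroma-Glo addition.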
Usually AC50 stands for the midpoint of the concentration-response curve, whichever way the signal moves. Take `CCCCCn1c(=O)[nH]c2cc(C(=O)N3CCN(c4ccccc4)CC3)ccc2c1=O`: the AC50 is 5.01 µM [falling, full curve, poor fit].

For the compound `Cc1cc(N2CCN(C)CC2)nc2ccc(NC(=O)Nc3ccccc3Cl)cc12`, the AC50 was 39.8 µM [falling, single point]. Then `CCN(c1ncnc2c1c(-c1ccccc1)cn2-c1ccccc1)C1CCCCC1`, with 7.94 µM [falling, partial curve]. Then `Cc1cccc(N2CCN(C(=O)c3cn(C)c(=O)c4c3c3ccccc3n4C)CC2)c1C`, with 31.6 µM [falling, partial curve]; and `CCNc1c(NC(=O)c2ccccc2OCC)c(=O)oc2ccccc12`, with 12.6 µM [falling, partial curve]. Then `CCOC(=O)C1=C(CNCc2ccccc2)NC(=O)NC1c1ccc(C)cc1` (centres undefined), with 15.8 µM [falling, partial curve]; and `Cc1ccc(N2C(=O)[C@@H]3CSC(c4ccc(C(F)(F)F)cc4)N3C2=O)cc1` (some centres undefined), with 1.26 µM [rising, full curve]; and `COc1ccc(-n2c(=O)c3c(C)c(C)sc3n(Cc3ccc(F)cc3)c2=O)c(OC)c1`, with 25.1 µM [falling, single point].

As to `Cc1ccc(S(=O)(=O)N2CCCc3cc(NC(=O)c4ccc(C(F)(F)F)cc4)ccc32)cc1`, the AC50 is 20 µM [falling, single point]. For the compound `COc1ccc(-c2noc(CSc3nnc(-c4ccncc4)n3-c3cccc(C)c3)n2)cc1OC`, the AC50 is 39.8 µM [falling, single point]. The same measure for `O=C(c1cc2ccccc2o1)c1nc2c(n1O)CCCCC2`: 1 µM [falling, full curve]; for `COc1ccc(CCC(=O)NCCc2csc(-c3cccc(F)c3)n2)cc1`: 31.6 µM [falling, partial curve]; for `COc1ccc(NC(=O)c2oc3ccc4c(c3c2C)C(=O)CC(C)(C)O4)cc1OC`: 31.6 µM [falling, single point]. Then `CCc1ccc(OCC2c3cc(OC)c(OC)cc3CCN2C(=O)Cc2ccc(OC)c(OC)c2)cc1` (centres undefined), with 31.6 µM [falling, single point]; and `COc1cc2c(cc1NC(=O)C(C)Oc1ccc(Cl)cc1Cl)oc1ccccc12` (centres undefined), with 0.0398 µM [falling, full curve, poor fit]; and `Cc1ccc(CCNC(=O)CCCn2nc(C)c3c(C)n(-c4ccc(C)cc4)nc3c2=O)cc1`, with 12.6 µM [falling, partial curve]. Then `COc1ccc(CNC(=O)C2CCCN(S(=O)(=O)c3cc(C)ccc3OC)C2)cc1` (centres undefined), with 12.6 µM [falling, partial curve]; and `O=C(NCCc1ccc(Cl)cc1)c1ccc2c(c1)N(Cc1ccc(F)cc1Cl)C(=O)CS2`, with 15.8 µM [falling, partial curve]; and `COc1ccc(-c2[nH]c(-c3ccccc3)nc2SCC(=O)Nc2ccc3c(c2)OCO3)cc1`, with 15.8 µM [falling, partial curve]. Take `O=C(CN1C(=O)NC2(CCCCCCC2)C1=O)N1CCOCC1`: the AC50 is 3.98 µM [rising, partial curve].

With `O=C(Nc1ccc(F)cc1)c1cccc(N2CCCS2(=O)=O)c1`, the AC50 is 39.8 µM [falling, partial curve, poor fit]. Then `CCOc1ccccc1NC(=O)C1CCN(S(=O)(=O)Cc2ccccc2)CC1`, with 39.8 µM [falling, single point]. Then `Cc1cc(O)c(C(c2ccccc2Cl)N2CCCCC2)c(=O)n1Cc1ccco1` (centres undefined), with 6.31 µM [falling, partial curve, poor fit]; and `Cc1ccc(NC(=O)c2ccc3c(=O)n4nc(Nc5ccccc5C)sc4nc3c2)cc1C`, with 39.8 µM [falling, single point]. The same measure for `CCc1ccc(C2N3CC4(C)CN2CC(c2ccccc2)(C3)C4=O)cc1` (centres undefined): 15.8 µM [falling, partial curve]; for `Cc1c2cnn(CC(=O)N3CCCCC3)c(=O)c2c(C)n1Cc1ccc(Cl)cc1`: 10 µM [falling, partial curve]; for `CCn1cc(C(=O)NCc2ccccc2)c(=O)c2cc(S(=O)(=O)N3CCOCC3)ccc21`: 39.8 µM [falling, single point].

As to `Cc1cccc(N2CCN(C(=O)c3c4c(nc5ccccc35)C(=O)N(C3CCCCC3)C4)CC2)c1C`, the AC50 is 39.8 µM [falling, single point]. The same measure for `Cc1ccc(N(C)C(=O)c2noc3c2CCCCC3)cc1C`: 39.8 µM [falling, single point]. Then `COc1cc(OC)c(NC(=O)C(C)n2nc(-c3ccc(C)c(C)c3)ccc2=O)cc1Cl` (centres undefined), with 31.6 µM [falling, partial curve]; and `COc1cccc(NC(=O)CSc2nnc(NC(=O)NC3CCCCC3)s2)c1`, with 25.1 µM [falling, single point]. The same measure for `Cc1cc(C)c(C#N)c(SCC(=O)c2cccs2)n1`: 1.58 µM [falling, partial curve]; for `Cc1ccc(-n2nc(C)c(C(=O)NCCCN3CCN(c4ccccc4F)CC3)c2-n2cccc2)cc1`: 10 µM [falling, partial curve]. With `CCOC(=O)c1cnc2c(C)cc(C)cc2c1Nc1ccc(N2CCOCC2)cc1`, the AC50 is 12.6 µM [falling, partial curve]. Then `Cc1oc(-c2ccc(Cl)cc2)nc1CN1CCCC(C(=O)NCc2ccc(Cl)cc2)C1` (centres undefined), with 15.8 µM [falling, partial curve].

For `CCCOc1ccccc1C(=O)Nc1nc2c(s1)CCCC2`, the AC50 was 25.1 µM [falling, partial curve]. Then `CN(Cc1ccccc1)C(=O)c1ccc2c(c1)N(Cc1ccc(Cl)cc1)C(=O)c1ccccc1S2=O` (centres undefined), with 12.6 µM [falling, partial curve]. The same measure for `CCc1ccccc1N1CC(c2nc3ccccc3n2CCC2CCCCC2)CC1=O` (centres undefined): 15.8 µM [falling, partial curve]; for `Cc1nnc(N2CCC(C(=O)NCc3cccc(Cl)c3)CC2)c2nn(-c3ccccc3)c(C)c12`: 39.8 µM [rising, single point] [measured here: IkB-luc green channel].
